PubChem BioAssay AID743454, Peter MacCallum Cancer Centre | 2014
Shown is an unselected part of about 18,000 reagents tested. 450 of them (2.5%) count as active. 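Single biological run; no consistent viability z cut-off exists, so the class columns, not z-scores, define the calls.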 Entries without a mark were called inactive. Reagent sequences are not shown.

Purpose: 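Search for knock-downs that restore vorinostat killing in resistant colon cancer cells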 (primary screen)
System: human HCT116-VR colon cancer cells, selected for vorinostat resistance
Knock-down reagent: siRNA pool against human genes, 40 nM siRNA pool
Time to read-out: vorinostat for 24 h, read-out about 72 h after transfection
Challenge: vorinostat at 2.5 µM final
Measurement: 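Two measures, CellTiter-Fluor viability and luminescent caspase 3/7 activity, each as fold change against same-plate mock wells, mean of duplicates, then screen-wide robust z-score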
Direction: viability robust z-score: higher = more viable cells than screen typical; caspase robust z-score: higher = more caspase 3/7 activity than screen typical
Rule for the call: 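a knock-down is a hit when classed RV1 or RV2 for lowered viability, or CA1 or CA2 for caspase activation; those lethal without drug were dropped; hits were retested singly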

| target | PubChem SID | viability hit class | caspase hit class | viability robust z-score | caspase robust z-score |
| --- | --- | --- | --- | --- | --- |
| EDDM3B | SID152150749 | no change | no change | -1.47 | -1.38 |
| PURB | SID135622595 | no change | no change | 0.16 | 0.15 |
| APAF1 | SID135620680 | no change | no change | -1.44 | -1.06 |
| SCMH1 | SID152153416 | no change | no change | 0.66 | 0.43 |
| VPS54 | SID152155781 | no change | no change | -1.64 | 0.95 |
| RPL17 | SID152155747 | no change | no change | -0.64 | 2.03 |
| TAGLN3 | SID152152135 | no change | no change | 0.79 | 0.39 |
| DCAF4 | SID135622439 | no change | no change | -1.56 | -0.62 |
| GRID2 | SID152154846 | no change | no change | 0.43 | -0.06 |
| PTPN7 | SID134313269 | no change | no change | 0.14 | 0.3 |
| TMEM165 | SID134322681 | no change | no change | 0.2 | -0.53 |
| ZNF446 | SID135623974 | no change | no change | 0.29 | -0.46 |
| TMEM61 | SID135623637 | no change | no change | -2.11 | 4.15 |
| NLRP5 | SID152154282 | no change | no change | 0.07 | -0.78 |
| ZBTB3 | SID134320472 | no change | no change | 0.24 | 0.08 |
| SART3 | SID152156404 | no change | no change | -0.48 | -0.17 |
| RAET1L | SID135623275 | no change | no change | 0.24 | 1.06 |
| ZNF383 | SID134320442 | no change | no change | -0.42 | 0.44 |
| ATF7IP2 | SID134318676 | no change | no change | -0.48 | -0.54 |
| PDZRN4 | SID152154640 | no change | no change | -0.8 | 0.6 |
| RIN1 | SID135623866 | no change | no change | -1.34 | -0.65 |
| MMD2 | SID152152081 | no change | no change | 0.68 | -0.95 |
| S100B | SID135622284 | no change | no change | 0.44 | -0.94 |
| RPH3A | SID134324068 | no change | no change | -1.17 | 1.41 |
| RBBP8 | SID134315719 | no change (active) | CA1 (caspase activation) | -0.12 | 6.83 |
| ATPSCKMT | SID152148055 | no change | no change | -0.34 | -0.36 |
| KCNB1 | SID134311636 | no change | no change | -2.19 | 0.79 |
| SAP30 | SID135622143 | no change | no change | 0.44 | -0.36 |
| CDK5R1 | SID135621688 | no change | no change | -1.52 | 3.94 |
| BCO2 | SID152156346 | no change | no change | 0.18 | 1.62 |
| ZNF573 | SID134320605 | no change | no change | -0.89 | 1.49 |
| EVA1B | SID134324856 | no change | no change | -0.24 | -0.1 |
| MRPL9 | SID135622546 | no change | no change | -1.19 | -1 |
| TMA7 | SID152149148 | no change | no change | -0.92 | -0.82 |
| GLOD5 | SID135624999 | no change | no change | 1.14 | -0.14 |
| SLC1A5 | SID152148192 | no change | no change | 0.48 | -0.86 |
| PCDH11X | SID134317837 | no change | no change | -0.11 | -0.96 |
| ADK | SID56478860 | no change | no change | -0.08 | 1.34 |
| CNP | SID152153604 | no change | no change | -0.01 | -0.21 |

Reagents listed so far with an active call:
| target | PubChem SID | viability hit class | caspase hit class | viability robust z-score | caspase robust z-score |
| --- | --- | --- | --- | --- | --- |
| RBBP8 | SID134315719 | no change (active) | CA1 (caspase activation) | -0.12 | 6.83 |
